{"source": "PubChem BioAssay AID652243 (Drosophila RNAi Screening Center, 2013)", "purpose": "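Knock-downs that decrease or increase androgen receptor reporter signal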 (primary screen)", "cells": "Drosophila S2R+ cells", "knock-down reagent": "long dsRNA against Drosophila genes", "timing": "72 h (48 h, then 24 h hormone)", "challenge": "synthetic androgen R1881 at 10 nM for 24 h", "detection": "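Firefly light from an androgen-responsive reporter and Renilla control light per well, raw and unnormalised, for each of two replicates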", "reading the numbers": "firefly reporter light: higher = more light from androgen-responsive reporter; Renilla control light: higher = more constitutive control signal (cell number, transfection)", "rule for the call": "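Hit when the log firefly-to-Renilla ratio dropped or increased by a fixed fold versus the mean of GFP or LacZ controls across duplicate plates; lowering cut given as 1.5 and as 3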", "calls": "active = hit: reporter lowered or raised; inactive = no hit", "note": "The screen tested about 24,000 reagents; below is a random part of those with a known target gene and a result. Over the whole deposit, 246 (1%) were called active. 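Plates not normalised; calls are printed but the firefly/Renilla ratio behind them is not deposited; fold cut for lowering reported inconsistently.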 Raw values vary from plate to plate and are shown uncorrected. A plus sign joins genes that one reagent is predicted to hit. Not stated in the record: the amount of reagent."}
{"gene":"CG2887","DRSC id":"DRSC18235","firefly reporter light, replicate 1":4.22e5,"firefly reporter light, replicate 2":3.94e5,"Renilla control light, replicate 1":3.90e6,"Renilla control light, replicate 2":3.27e6,"Outcome":"inactive"}
{"gene":"CG2887","DRSC id":"DRSC24167","firefly reporter light, replicate 1":9.27e5,"firefly reporter light, replicate 2":7.39e5,"Renilla control light, replicate 1":7.83e5,"Renilla control light, replicate 2":8.38e5,"Outcome":"inactive"}
{"gene":"Meics (Meiotic central spindle)","DRSC id":"DRSC11413","firefly reporter light, replicate 1":2.42e5,"firefly reporter light, replicate 2":1.87e5,"Renilla control light, replicate 1":2.16e6,"Renilla control light, replicate 2":1.30e6,"Outcome":"inactive"}
{"gene":"Meics (Meiotic central spindle)","DRSC id":"DRSC29541","firefly reporter light, replicate 1":3.99e5,"firefly reporter light, replicate 2":2.42e5,"Renilla control light, replicate 1":7.05e5,"Renilla control light, replicate 2":7.05e5,"Outcome":"inactive"}
{"gene":"skd (skuld)","DRSC id":"DRSC11898","firefly reporter light, replicate 1":1.60e5,"firefly reporter light, replicate 2":1.27e5,"Renilla control light, replicate 1":1.58e6,"Renilla control light, replicate 2":1.91e6,"Outcome":"inactive"}
{"gene":"CG11843","DRSC id":"DRSC14401","firefly reporter light, replicate 1":2.59e5,"firefly reporter light, replicate 2":2.31e5,"Renilla control light, replicate 1":2.63e6,"Renilla control light, replicate 2":3.38e6,"Outcome":"inactive"}
{"gene":"Atg10 + CG18853 + CG12822","DRSC id":"DRSC20757","firefly reporter light, replicate 1":4.00e5,"firefly reporter light, replicate 2":3.35e5,"Renilla control light, replicate 1":2.94e5,"Renilla control light, replicate 2":2.70e5,"Outcome":"inactive"}
{"gene":"CG42232","DRSC id":"DRSC15018","firefly reporter light, replicate 1":80329,"firefly reporter light, replicate 2":53060,"Renilla control light, replicate 1":2.92e5,"Renilla control light, replicate 2":2.62e5,"Outcome":"inactive"}
{"gene":"CG42232","DRSC id":"DRSC15019","firefly reporter light, replicate 1":79704,"firefly reporter light, replicate 2":82443,"Renilla control light, replicate 1":7.28e5,"Renilla control light, replicate 2":7.24e5,"Outcome":"inactive"}
{"gene":"CG42232","DRSC id":"DRSC29868","firefly reporter light, replicate 1":3.81e5,"firefly reporter light, replicate 2":5.30e5,"Renilla control light, replicate 1":7.29e5,"Renilla control light, replicate 2":8.84e5,"Outcome":"inactive"}
{"gene":"ATP7","DRSC id":"DRSC19819","firefly reporter light, replicate 1":4.21e5,"firefly reporter light, replicate 2":5.03e5,"Renilla control light, replicate 1":2.66e6,"Renilla control light, replicate 2":2.77e6,"Outcome":"inactive"}
{"gene":"Or67d (Odorant receptor 67d)","DRSC id":"DRSC10158","firefly reporter light, replicate 1":2.61e5,"firefly reporter light, replicate 2":1.53e5,"Renilla control light, replicate 1":1.76e6,"Renilla control light, replicate 2":9.51e5,"Outcome":"inactive"}
{"gene":"CG4793","DRSC id":"DRSC01966","firefly reporter light, replicate 1":1.97e5,"firefly reporter light, replicate 2":2.09e5,"Renilla control light, replicate 1":1.88e6,"Renilla control light, replicate 2":2.44e6,"Outcome":"inactive"}
{"gene":"Pph13 (PvuII-PstI homology 13)","DRSC id":"DRSC23162","firefly reporter light, replicate 1":5.80e5,"firefly reporter light, replicate 2":6.68e5,"Renilla control light, replicate 1":1.60e6,"Renilla control light, replicate 2":1.61e6,"Outcome":"inactive"}
{"gene":"Pph13 (PvuII-PstI homology 13)","DRSC id":"DRSC29483","firefly reporter light, replicate 1":5.79e5,"firefly reporter light, replicate 2":5.90e5,"Renilla control light, replicate 1":5.94e5,"Renilla control light, replicate 2":5.94e5,"Outcome":"inactive"}
{"gene":"betaggt-I (beta subunit of type I geranylgeranyl transferase)","DRSC id":"DRSC03494","firefly reporter light, replicate 1":1.53e5,"firefly reporter light, replicate 2":1.43e5,"Renilla control light, replicate 1":1.57e6,"Renilla control light, replicate 2":8.68e5,"Outcome":"inactive"}
{"gene":"CG3106","DRSC id":"DRSC18279","firefly reporter light, replicate 1":1.04e5,"firefly reporter light, replicate 2":1.27e5,"Renilla control light, replicate 1":7.53e5,"Renilla control light, replicate 2":8.65e5,"Outcome":"inactive"}
{"gene":"CG3106","DRSC id":"DRSC29465","firefly reporter light, replicate 1":4.83e5,"firefly reporter light, replicate 2":3.63e5,"Renilla control light, replicate 1":8.90e5,"Renilla control light, replicate 2":8.90e5,"Outcome":"inactive"}
{"gene":"CG6345","DRSC id":"DRSC16024","firefly reporter light, replicate 1":2.73e5,"firefly reporter light, replicate 2":2.28e5,"Renilla control light, replicate 1":2.44e6,"Renilla control light, replicate 2":1.91e6,"Outcome":"inactive"}
{"gene":"CG30031 + deltaTry + CG30025 + 1 more","DRSC id":"DRSC21262","firefly reporter light, replicate 1":1.42e5,"firefly reporter light, replicate 2":80698,"Renilla control light, replicate 1":4.96e5,"Renilla control light, replicate 2":4.48e5,"Outcome":"inactive"}
{"gene":"Hex-C (Hexokinase C)","DRSC id":"DRSC07079","firefly reporter light, replicate 1":68925,"firefly reporter light, replicate 2":55309,"Renilla control light, replicate 1":1.05e6,"Renilla control light, replicate 2":1.05e6,"Outcome":"inactive"}
{"gene":"Hex-C (Hexokinase C)","DRSC id":"DRSC24095","firefly reporter light, replicate 1":3.42e5,"firefly reporter light, replicate 2":4.84e5,"Renilla control light, replicate 1":3.49e5,"Renilla control light, replicate 2":3.14e5,"Outcome":"inactive"}
{"gene":"CG14230","DRSC id":"DRSC19586","firefly reporter light, replicate 1":93940,"firefly reporter light, replicate 2":1.10e5,"Renilla control light, replicate 1":7.30e5,"Renilla control light, replicate 2":8.76e5,"Outcome":"inactive"}
{"gene":"SdhAL (Succinate dehydrogenase, subunit A (flavoprotein)-like)","DRSC id":"DRSC10539","firefly reporter light, replicate 1":1.38e6,"firefly reporter light, replicate 2":5.81e5,"Renilla control light, replicate 1":1.25e6,"Renilla control light, replicate 2":7.78e5,"Outcome":"inactive"}
{"gene":"His4r (Histone H4 replacement)","DRSC id":"DRSC16703","firefly reporter light, replicate 1":4.49e5,"firefly reporter light, replicate 2":6.80e5,"Renilla control light, replicate 1":1.25e5,"Renilla control light, replicate 2":1.52e5,"Outcome":"inactive"}
{"gene":"His4r (Histone H4 replacement)","DRSC id":"DRSC27569","firefly reporter light, replicate 1":5.61e5,"firefly reporter light, replicate 2":3.49e5,"Renilla control light, replicate 1":4.76e5,"Renilla control light, replicate 2":6.06e5,"Outcome":"inactive"}
{"gene":"CG15861","DRSC id":"DRSC04274","firefly reporter light, replicate 1":1.88e5,"firefly reporter light, replicate 2":2.09e5,"Renilla control light, replicate 1":1.39e6,"Renilla control light, replicate 2":1.33e6,"Outcome":"inactive"}
{"gene":"CG15861","DRSC id":"DRSC29309","firefly reporter light, replicate 1":6.73e5,"firefly reporter light, replicate 2":7.09e5,"Renilla control light, replicate 1":1.15e6,"Renilla control light, replicate 2":1.25e6,"Outcome":"inactive"}
